Results reported in US20060079550A1, “Amino acid derivatives useful for the treatment of alzheimer's disease” (priority 2001, published 2006).
At least one compound was matched to its structure with a doubt left.

Biological target: aspartyl proteases, in particular, beta-secretase
Assay: Ki of the compounds listed in Tables 1 and 2 (no method described)
Type: biochemical
Conditions: Table 1, compounds of formula Ia, W is -(CH2)n-

With `Cc1ccc(S(=O)(=O)N(CC(C)C)C(CCCCNC(CCc2ccccc2)=NC#N)C(=O)O)cc1` (racemic) [Compound No. 204, Nα-isobutyl-Nα-(4-methylbenzenesulfonyl)-Nε-(dihydrothiocinnamoyl-N-cyanoamidine)-DL-lysine] the Ki was 34 nM.
